Holding throughout (assay): co-IP
Assay [1] has as its target T1, C21ORF2 (endogenous) (human (endogenous in ARPE-19, HeLa, HEK293, U2OS)) (UniProt O43822).
T1 sequence: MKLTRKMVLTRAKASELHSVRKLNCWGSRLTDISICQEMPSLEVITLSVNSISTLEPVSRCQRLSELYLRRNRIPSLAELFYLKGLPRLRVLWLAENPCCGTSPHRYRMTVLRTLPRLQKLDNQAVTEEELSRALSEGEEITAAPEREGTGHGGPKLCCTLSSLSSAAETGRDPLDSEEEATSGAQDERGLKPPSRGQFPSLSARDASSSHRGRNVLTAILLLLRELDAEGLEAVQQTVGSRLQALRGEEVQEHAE

The target of assay [2] is T1, C21ORF2 (endogenous) (human (endogenous in ARPE-19, HeLa, HEK293, U2OS)). This is another data set of the same source.
The target is the same in assay [3]. The source holds these as a separate data set.
Assay [4] addresses T2, C21ORF2 L224P re-expressed in C21ORF2-KO ARPE-19 cells (human) (UniProt O43822).
T2 sequence: T1 sequence with L224P

In assay [5] the target is T3, C21ORF2 L73P (R73P elsewhere in the paper) re-expressed in C21ORF2-KO ARPE-19 cells (human) (UniProt O43822).
T3 sequence: T1 sequence with R73P

Residue numbers refer to the chain shown, from its start. Read-outs that look alike come from different tables or passages of the source. Results are given in words; binding and its absence hold for the method and conditions named. In cells and extracts the contact can be indirect. Some results given as binding are weak or reduced against the parent protein; the word gives no strength.

B1: NEK1 (endogenous) (enzyme, UniProt Q96PY6-3 1-1286)
chain: MEKYVRLQKIGEGSFGKAILVKSTEDGRQYVIKEINISRMSSKEREESRREVAVLANMKHPNIVQYRESFEENGSLYIVMDYCEGGDLFKRINAQKGVLFQEDQILDWFVQICLALKHVHDRKILHRDIKSQNIFLTKDGTVQLGDFGIARVLNSTVELARTCIGTPYYLSPEICENKPYNNKSDIWALGCVLYELCTLKHAFEAGSMKNLVLKIISGSFPPVSLHYSYDLRSLVSQLFKRNPRDRPSVNSILEKGFIAKRIEKFLSPQLIAEEFCLKTFSKFGSQPIPAKRPASGQNSISVMPAQKITKPAAKYGIPLAYKKYGDKKLHEKKPLQKHKQAHQTPEKRVNTGEERRKISEEAARKRRLEFIEKEKKQKDQIISLMKAEQMKRQEKERLERINRAREQGWRNVLSAGGSGEVKAPFLGSGGTIAPSSFSSRGQYEHYHAIFDQMQQQRAEDNEAKWKREIYGRGLPERGILPGVRPGFPYGAAGHHHFPDADDIRKTLKRLKAVSKQANANRQKGQLAVERAKQVEEFLQRKREAMQNKARAEGHMGILQNLAAMYGGRPSSSRGGKPRNKEEEVYLARLRQIRLQNFNERQQIKAKLRGEKKEANHSEGQEGSEEADMRRKKIESLKAHANARAAVLKEQLERKRKEAYEREKKVWEEHLVAKGVKSSDVSPPLGQHETGGSPSKQQMRSVISVTSALKEVGVDSSLTDTRETSEEMQKTNNAISSKREILRRLNENLKAQEDEKGKQNLSDTFEINVHEDAKEHEKEKSVSSDRKKWEAGGQLVIPLDELTLDTSFSTTERHTVGEVIKLGPNGSPRRAWGKSPTDSVLKILGEAELQLQTELLENTTIRSEISPEGEKYKPLITGEKKVQCISHEINPSAIVDSPVETKSPEFSEASPQMSLKLEGNLEEPDDLETEILQEPSGTNKDESLPCTITDVWISEEKETKETQSADRITIQENEVSEDGVSSTVDQLSDIHIEPGTNDSQHSKCDVDKSVQPEPFFHKVVHSEHLNLVPQVQSVQCSPEESFAFRSHSHLPPKNKNKNSLLIGLSTGLFDANNPKMLRTCSLPDLSKLFRTLMDVPTVGDVRQDNLEIDEIEDENIKEGPSDSEDIVFEETDTDLQELQASMEQLLREQPGEEYSEEEESVLKNSDVEPTANGTDVADEDDNPSSESALNEEWHSDNSDGEIASECECDSVFNHLEELRLHLEQEMGFEKFFEVYEKIKAIHEDEDENIEICSKIVQNILGNEHQHLYAKILHLVMADGAYQEDNDE
For B1, the binding result is listed as “binds” in assay [1]; “binds” in assay [2]; “binds” in assay [3]; “binds weakly” in assay [4]; “binds weakly” in assay [5].

Source of the values: article doi:10.1101/2022.08.31.505651.
